Experimental data as given in article PMC10163288.
The other results are listed elsewhere or left out.

B1: il2ra_site2_3nfp_sap_26_mot_HHH_b1_04264_000000089_0001_1_18_H_._cc38c158466f61ccbd7ce36cb6c4896f_0001_0001_0000100003_0000001_0_0001 (protein)
chain: SSSSSDVEELLEEAEELIEDGNPYEAAQVLLEAAELIARRGDEELARILLELFELLQRKGSSSSS
B2: il2ra_site1_3nfp_sap_18_mot_HHH_b1_05070_af2_000000282_0001_43_57_H_._HHH_b1_01516_af2_0001_0000200009_0000001_0_0001_af2pred_dldesign_0_af2pred (protein)
chain: SSSSSSDPQKLFEEASKAYDAGKLEEAKELLEKARAAALAAGRHALARFIERCLKSLKSSSSSSS
B3: il2ra_site2_3nfp_normal_mot_HHH_b1_00553_af2_000000024_0001_18_52_H_._065ff1a2d9b8d7deec6d0c3749ab815f_0001_1_0001_0000300029_0000001_0 (protein)
chain: DELEEKLARLLAEDPDNHAIFVALALLIQLKEGEIPPEKIERALRRLLEELGDPLVEEVLEELER
B4: il2ra_site1_1z92_normal_mot_76fe7993c3ad9ffb2b2ee76f24d0ea53_0001_af2_000000057_0001_36_49_H_._4bbf342bb4568474bb2f38d9b0ee6fc8_0001_af2_0001_0000100008_0000001 … (protein)
chain: SSSSDEEELAEELVRELIEELGGSEELKEAAERDAKRSLEAGISEKSVRRALENAIRLTNSSSSS
B5: il2ra_site1_3nfp_sap_15_mot_46d73865503fbedcaf0f3a45445d594c_0001_af2_000000151_0001_1_12_H_._HEEHE_2475_0001_0000500042_0000001_0_0001_af2pred_0001_af2pred_swa … (protein)
chain: SSSSSQERIRELLKRAEELLKNGNPEEAEELLREALELAEERGSPNTRKFLEKALENIERSSSSS
B6: il2ra_site2_3nfp_sap_13_mot_HHH_b2_07749_000000092_0001_22_39_H_._0e2d25f789470a7fb5ac47814863eff0_0001_1_0001_0000100005_0000001_0_0001 (protein)
chain: SSSSDVEEFARELTEEAREKYEEGNPEEALEILLRAAAYVWERNDFEAFAILSELAQKIASSSSS
B7: il2ra_site2_3nfp_sap_20_mot_HHH_b2_06100_000000049_0001_1_16_H_._HHH_b1_05695_0001_0000700056_0000001_0_0001_af2pred_0001_1_af2pred_swapped (protein)
chain: SSSDETKEEVKKLLEEVEELIKQGNEEEARRVLKEAFRVAREGNDVEALVEVLELRRKLFQSSSS
B8: il2ra_site2_2erj_normal_mot_76e6e8f7232a9e65eeaab5ff8ecb4c96_0001_000000242_0001_17_31_H_._HHH_eva_0320_af2_0001_0000500007_0000001_1 (protein)
chain: SSTEEEEVRRVVEEAEELIKRGDLEEAEEVLSEAFTLVYELGDEELVILILELAHELVRLLAKSS
B9: il2ra_site1_1z92_sap_9_mot_HHH_b1_05973_af2_000000047_0001_39_50_H_._HHH_b2_00944_0001_0000500019_0000001_0_0001_af2pred_0001_af2pred (protein)
chain: SSSSSDKELVVRFLIEQLERKLELGNPRAAERVFEMARQVIEEAGDEELRELLEEVREELSSSSS
B10: il2ra_site2_2erj_sap_27_mot_HHH_b2_03845_000000122_0001_43_56_H_._HHH_b2_05868_0001_0000100002_0000001_0_0001_af2pred_dldesign_0_af2pred (protein)
chain: SSSSSSDPREEVLRLIEEAKKEKDPKKAKKLLIKAYYLAKKLGDEELIAKVKEVYEELSSSSSSS
B11: il2ra_site1_2b5i_normal_mot_HHH_b2_04910_000000118_0001_1_19_H_._HHH_b1_07627_af2_0001_0000400018_0000001_1_af2pred_dldesign_0_af2pred (protein)
chain: SSSSSLAEEARRLFLEADRLKQAGKEEEAKEVLEKALELAKAAGANLLARIIELALKDLESSSSS
B12: il2ra_site1_3nfp_sap_20_mot_1cd86ef9f1587ae5d14d35bbbd8e7f1d_0001_1_000000087_0001_34_49_H_._HHH_b1_07471_0001_0000400010_0000001_0_0001 (protein)
chain: SSSSDAMEFMEEMIERAFENNDRLQLRALIKILKRAAEQYGDPEVRELLKQAEELLEELNSSSSS
B13: il2ra_site2_2erj_normal_mot_64bd02d26d05ce9f1a62b616cea0b888_0001_af2_000000020_0001_36_49_H_._HHH_b2_03060_0001_0000400019_0000001_0 (protein)
chain: SSSDRELTEFVLRVVYELLTEFNLSLEQMEELFELAEELLRRGVSEEEIEELLRELAEELSSSSS
B14: il2ra_site1_3nfp_sap_20_mot_HHH_b1_07180_af2_000000260_0001_1_19_H_._HHH_b1_03095_af2_0001_0000100004_0000001_0_0001 (protein)
chain: SSSSDHLERVVEELVEELGLTRHAQKALERAVEQLKEMGISEEEAEKALRDAARMFAEIVSSSSS
B15: il2ra_site1_3nfp_sap_17_mot_0eddeacbb14b769e73e254714f31e2f9_0001_af2_000000052_0001_37_51_H_._7093d3a5e4329be201a559e39cb9bd18_0001_0001_0000800048_0000001_0_0 … (protein)
chain: SSSDEAKELAEEAIEELERLIKEGDVRAVAETIRRIAKELLELNDPEALELLQREVRKLLRSSSS
B16: il2ra_site1_2b5i_sap_14_mot_HHH_b1_08243_000000135_0001_1_19_H_._HHH_b1_06522_0001_0000100006_0000001_0_0001_af2pred_dldesign_0_af2pred (protein)
chain: SSSSSLVRETIERVEELLKAGKTEEAKEVVDELEKIAKEKKNPSLLRTVKFLKEAIKDAEESSSS
B17: il2ra_site1_2b5i_sap_18_mot_HHH_b2_08121_af2_000000082_0001_40_52_H_._HHH_b1_08546_af2_0001_0000100001_0000001_1_0001 (protein)
chain: SSSSDEAVEEVDELFRRASRLFRSGNPEEARELIEEAQEIAERNNDESARRDLERFLELLRSSSS
B18: il2ra_site2_3nfp_normal_mot_HHH_b2_05132_000000098_0001_38_52_H_._HHH_b2_07492_0001_0000400049_0000001_0 (protein)
chain: SSSSDVEERVRELLEQAEELREEGNPEEVLRLLAEATHLALENNDFEAYALIAEVTLKLQQSSSS

Biological target: il2ra, P01589
Assay: yeast display titration

Apparent Kd, inactive:
B1 no binding seen, B2 no binding seen, B3 no binding seen, B4 no binding seen, B5 no binding seen, B6 no binding seen, B7 no binding seen, B8 no binding seen, B9 no binding seen, B10 no binding seen, B11 no binding seen, B12 no binding seen, B13 no binding seen, B14 no binding seen, B15 no binding seen, B16 no binding seen, B17 no binding seen, B18 no binding seen
